Test results: article PMC9360041
No constants are given. Whether binding was seen depends on the method and setting. For some of these results: In cells and extracts the contact can be indirect. Some results given as binding are weak or reduced against the parent protein; the word gives no strength. For some of these results: Tags and fused reporters may be left off the sequences shown.

Amino acid sequences for entries named in this document (tags omitted).
UniProt Q99873: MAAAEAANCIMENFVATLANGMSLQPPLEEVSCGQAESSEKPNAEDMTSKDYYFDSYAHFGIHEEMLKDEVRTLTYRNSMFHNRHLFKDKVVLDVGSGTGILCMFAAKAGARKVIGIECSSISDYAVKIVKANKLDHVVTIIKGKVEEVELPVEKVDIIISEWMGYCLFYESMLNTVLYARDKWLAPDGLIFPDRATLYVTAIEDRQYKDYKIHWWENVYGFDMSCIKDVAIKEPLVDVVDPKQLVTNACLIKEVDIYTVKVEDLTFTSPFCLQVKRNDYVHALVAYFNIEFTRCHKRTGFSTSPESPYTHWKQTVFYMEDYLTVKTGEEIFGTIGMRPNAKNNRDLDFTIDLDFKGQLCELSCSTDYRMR

Tests used:
GST-HBP1 = molecular target: T1, GST-HBP1 (UniProt O60381); experiment: pull-down; GST-tagged protein or GST alone on glutathione-Sepharose beads overnight at 4 °C, then incubated with His-tagged protein for 4 h at 4 °C; immunoblotting with anti-His antibody; both purified
T1 sequence: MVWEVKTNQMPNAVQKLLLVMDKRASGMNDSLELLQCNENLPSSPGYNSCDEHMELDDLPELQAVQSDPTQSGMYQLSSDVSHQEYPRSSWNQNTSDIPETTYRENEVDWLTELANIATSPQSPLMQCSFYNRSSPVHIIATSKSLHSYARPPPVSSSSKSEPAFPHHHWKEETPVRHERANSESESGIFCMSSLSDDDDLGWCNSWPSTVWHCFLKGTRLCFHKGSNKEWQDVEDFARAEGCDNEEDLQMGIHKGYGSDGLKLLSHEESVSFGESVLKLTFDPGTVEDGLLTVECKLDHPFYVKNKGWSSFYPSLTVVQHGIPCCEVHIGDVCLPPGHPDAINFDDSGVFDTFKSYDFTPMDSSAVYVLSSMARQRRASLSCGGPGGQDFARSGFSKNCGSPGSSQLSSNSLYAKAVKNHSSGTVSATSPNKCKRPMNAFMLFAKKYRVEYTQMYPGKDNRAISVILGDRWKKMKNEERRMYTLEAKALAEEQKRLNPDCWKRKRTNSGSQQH

[1] = molecular target: T2, endogenous HBP1 (human (endogenous in HeLa)) (UniProt O60381); experiment: co-IP; endogenous HBP1 or PRMT1 immunoprecipitated from HeLa cells; immunoblotted with anti-HBP1 or anti-PRMT1 antibodies
T2 sequence: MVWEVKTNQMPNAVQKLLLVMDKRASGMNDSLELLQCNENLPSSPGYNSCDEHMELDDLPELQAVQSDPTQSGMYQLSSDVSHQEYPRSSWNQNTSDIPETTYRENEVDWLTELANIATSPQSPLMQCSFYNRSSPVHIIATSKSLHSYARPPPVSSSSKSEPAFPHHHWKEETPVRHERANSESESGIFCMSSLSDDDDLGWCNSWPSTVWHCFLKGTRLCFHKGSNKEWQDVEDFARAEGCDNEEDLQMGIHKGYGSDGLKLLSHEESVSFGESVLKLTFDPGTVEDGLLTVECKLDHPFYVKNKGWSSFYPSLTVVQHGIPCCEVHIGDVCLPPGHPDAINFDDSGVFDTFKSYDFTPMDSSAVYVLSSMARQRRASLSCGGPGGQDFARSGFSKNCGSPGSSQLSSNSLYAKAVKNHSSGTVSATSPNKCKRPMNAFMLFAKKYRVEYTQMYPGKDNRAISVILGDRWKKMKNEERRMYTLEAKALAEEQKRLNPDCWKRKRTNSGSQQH

HA-HBP1 = molecular target: T3, HA-HBP1 (UniProt O60381); experiment: co-IP; HEK293T cells co-transfected with tagged HBP1 and tagged PRMT1; IP with anti-HA or anti-FLAG antibody and Protein A-Sepharose overnight at 4 °C in IP lysis buffer (25 mM Tris-HCl pH 7.4, 150 mM NaCl, 1% Nonidet P-40, 1 mM EDTA, 5% glycerol); western blotting with anti-FLAG/HA
T3 sequence: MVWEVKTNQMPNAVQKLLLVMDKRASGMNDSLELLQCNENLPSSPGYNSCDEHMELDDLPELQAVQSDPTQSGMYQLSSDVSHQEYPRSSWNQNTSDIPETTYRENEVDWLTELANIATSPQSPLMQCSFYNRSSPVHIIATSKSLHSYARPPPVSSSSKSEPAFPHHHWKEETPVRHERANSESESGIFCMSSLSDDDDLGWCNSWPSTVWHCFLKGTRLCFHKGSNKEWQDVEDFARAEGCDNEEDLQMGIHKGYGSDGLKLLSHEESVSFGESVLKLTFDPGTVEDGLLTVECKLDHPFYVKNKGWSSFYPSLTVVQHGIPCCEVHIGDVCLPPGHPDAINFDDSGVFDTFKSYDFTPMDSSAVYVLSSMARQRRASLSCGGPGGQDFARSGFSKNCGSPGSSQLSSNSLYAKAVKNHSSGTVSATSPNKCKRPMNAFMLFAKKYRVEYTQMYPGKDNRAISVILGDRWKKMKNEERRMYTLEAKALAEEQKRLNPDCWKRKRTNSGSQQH

GST-PRMT1 = GST-PRMT1 (UniProt Q99873); experiment: pull-down; GST-tagged protein or GST alone on glutathione-Sepharose beads overnight at 4 °C, then incubated with His-tagged protein for 4 h at 4 °C; immunoblotting with anti-His antibody; both purified

Molecule: His-PRMT1 (from UniProt Q99873 1-371) (enzyme)
- binding (GST-HBP1): binds

Molecule: endogenous PRMT1 (from UniProt Q99873 1-371) (enzyme)
- binding [1]: binds

Molecule: FLAG-PRMT1 (from UniProt Q99873 1-371) (enzyme)
- binding (HA-HBP1): binds

B1: His-HBP1 (protein, UniProt O60381 1-514)
chain: MVWEVKTNQMPNAVQKLLLVMDKRASGMNDSLELLQCNENLPSSPGYNSCDEHMELDDLPELQAVQSDPTQSGMYQLSSDVSHQEYPRSSWNQNTSDIPETTYRENEVDWLTELANIATSPQSPLMQCSFYNRSSPVHIIATSKSLHSYARPPPVSSSSKSEPAFPHHHWKEETPVRHERANSESESGIFCMSSLSDDDDLGWCNSWPSTVWHCFLKGTRLCFHKGSNKEWQDVEDFARAEGCDNEEDLQMGIHKGYGSDGLKLLSHEESVSFGESVLKLTFDPGTVEDGLLTVECKLDHPFYVKNKGWSSFYPSLTVVQHGIPCCEVHIGDVCLPPGHPDAINFDDSGVFDTFKSYDFTPMDSSAVYVLSSMARQRRASLSCGGPGGQDFARSGFSKNCGSPGSSQLSSNSLYAKAVKNHSSGTVSATSPNKCKRPMNAFMLFAKKYRVEYTQMYPGKDNRAISVILGDRWKKMKNEERRMYTLEAKALAEEQKRLNPDCWKRKRTNSGSQQH
- binding (GST-PRMT1): binds
